Laboratory results from patent publication US20250313900A1, “COMPOSITIONS AND THERAPEUTIC AGENTS FOR MODULATING INFLAMMATORY RESPONSES ON BOTH TUMOR AND IMMUNE CELLS” (THE METHODIST HOSPITAL, priority 2022, published 2025).
No constants are given. Whether binding was seen depends on the method and setting. Binding seen in cells or lysates may run through a third protein. Some results given as binding are weak or reduced against the parent protein; the word gives no strength.

Amino acid sequences for entries named in this document (tags omitted).
UniProt Q8IZR5: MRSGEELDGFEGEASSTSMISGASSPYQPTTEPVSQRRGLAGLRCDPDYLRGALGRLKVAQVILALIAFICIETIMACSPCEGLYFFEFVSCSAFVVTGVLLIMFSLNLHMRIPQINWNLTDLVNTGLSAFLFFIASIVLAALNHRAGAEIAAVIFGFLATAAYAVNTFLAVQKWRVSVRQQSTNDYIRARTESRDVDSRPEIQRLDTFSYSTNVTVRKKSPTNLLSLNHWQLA

Target: T1, TRAF2 (in HCC827-CT cells) (human) (UniProt Q12933)
T1 sequence (looked up): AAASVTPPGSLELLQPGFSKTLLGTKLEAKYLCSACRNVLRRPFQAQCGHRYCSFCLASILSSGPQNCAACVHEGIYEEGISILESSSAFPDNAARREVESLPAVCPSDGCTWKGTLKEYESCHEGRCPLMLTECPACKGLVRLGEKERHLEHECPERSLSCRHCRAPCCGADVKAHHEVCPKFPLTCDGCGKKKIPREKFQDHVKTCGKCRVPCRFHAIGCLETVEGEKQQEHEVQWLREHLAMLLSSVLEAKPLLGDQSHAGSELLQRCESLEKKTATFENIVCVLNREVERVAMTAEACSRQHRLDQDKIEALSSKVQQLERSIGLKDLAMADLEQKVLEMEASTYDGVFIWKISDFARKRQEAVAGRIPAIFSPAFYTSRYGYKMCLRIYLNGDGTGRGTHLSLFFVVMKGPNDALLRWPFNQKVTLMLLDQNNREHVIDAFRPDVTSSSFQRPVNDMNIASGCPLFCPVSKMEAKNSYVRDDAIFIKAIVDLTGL
Test: co-immunoprecipitation and western blot

binding: binds
Substance: CMTM4 in HCC827-CT cells (from UniProt Q8IZR5 1-234)
